# Measurements published in PMC7819943, “Rice protein-binding microarrays: a tool to detect cis-acting elements near promoter regions in rice”.
# Sequences of proteins named here, by UniProt entry; tags and fusion partners are left off.
# UniProt Q0JBA9, entry or part of it: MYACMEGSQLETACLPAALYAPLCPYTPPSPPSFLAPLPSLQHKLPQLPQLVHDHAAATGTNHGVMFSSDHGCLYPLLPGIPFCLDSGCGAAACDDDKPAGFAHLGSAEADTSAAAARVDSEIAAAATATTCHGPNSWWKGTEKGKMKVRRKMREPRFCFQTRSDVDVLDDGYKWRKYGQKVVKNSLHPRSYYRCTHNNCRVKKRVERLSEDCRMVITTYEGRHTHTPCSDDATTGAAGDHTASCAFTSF
# This is one part of the list.
# Biological target: OsWRKY34 (Oryza sativa, UniProt Q0JBA9 1-250)
# Assay: protein-binding microarray (RPBM); PBS, 2% BSA, 51.3 ng/ul salmon testes DNA, 50 uM zinc acetate, 200 nM TF, 25 C, 1 h; high values mean tight binding
# Conditions: protein: recombinant; tags: N-terminal polyhistidine and DsRed monomer fusion (pET32a); label: CyDye5-dUTP incorporated in the synthesized complementary strand; 3' TTTTT single-stranded linker to array surface; dsDNA, one strand shown
# Method in brief: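 Transcription factors were each fused at the N-terminus to a polyhistidine tag plus DsRed and expressed in E. coli BL21-CodonPlus before Ni–NTA purification. Binding to a double-stranded custom Agilent array was carried out with 200 nM protein at 25 °C for 1 h in PBS, 2% BSA, salmon testes DNA and 50 µM zinc acetate. The binding signal is per-feature fluorescence intensity, in arbitrary units, on an Axon 4000B scanner.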
row,Sequence,binding signal
1,ATCGCAACAAACGACTCCCAGCTGCAGCCGTTTCCATCACCGGAGTCACCTAGTGCAG,8490 fluorescence intensity (a.u.)
2,GGGGAGGCGAGGCGGCGAGGTTATAAAAACGGTGGGGTGGCGGAGTCACCTAGTGCAG,12200 fluorescence intensity (a.u.)
3,AGTTTGATTTGTTATTTTTGTTACAACTTGTAGAATTTGACGGAGTCACCTAGTGCAG,8580 fluorescence intensity (a.u.)
4,GCGGAGGTGGTGGTGGTGCGGGAGTAGGGAGGCGGGCGAACGGAGTCACCTAGTGCAG,13800 fluorescence intensity (a.u.)
5,TCTATCTGCCTGACTATCTCTATCTCGATCTCGTCCAGGACGGAGTCACCTAGTGCAG,9860 fluorescence intensity (a.u.)
6,ACTCTTATTTTAATATTTCTTATTTTTAATTCCTAATTTTCGGAGTCACCTAGTGCAG,9760 fluorescence intensity (a.u.)
7,CTTCTTCCTAGCATTCCTTATGCTGCGTGATTCATATATACGGAGTCACCTAGTGCAG,9380 fluorescence intensity (a.u.)
8,AGTGGGTGAGGGTTGTAGAGGAAGGCATGCGAAGGAAAATCGGAGTCACCTAGTGCAG,8610 fluorescence intensity (a.u.)
9,GTTTTGCCGTTTTGCTGTGGTGCACAAAAGAACTTGTTCACGGAGTCACCTAGTGCAG,8740 fluorescence intensity (a.u.)
10,AATTTCACCTGTACAAAACATTTGCCTCAATGTCTGTTTTCGGAGTCACCTAGTGCAG,12700 fluorescence intensity (a.u.)
11,TGTGTCTCTTCTTTTTTCGCGAACGCGTAAAATTTGTGTCCGGAGTCACCTAGTGCAG,10100 fluorescence intensity (a.u.)
12,CTCAGCGCCATTCCATCTTGCATTGACCTATGCCGGCTCACGGAGTCACCTAGTGCAG,10600 fluorescence intensity (a.u.)
13,TGATACTTGGCAGGCGTCGTCTCCAAATACCTGACCACTTCGGAGTCACCTAGTGCAG,8290 fluorescence intensity (a.u.)
14,GCTCTCTCTCTCATGCCGCAACCGACGAATCCCGGCACATCGGAGTCACCTAGTGCAG,9330 fluorescence intensity (a.u.)
15,CTCGCGTGCGTGTGTGTTGTGCTTTCCAGTGATCTCGCCGCGGAGTCACCTAGTGCAG,9710 fluorescence intensity (a.u.)
16,TTTTGAGGTGGTTTTGTAATTTTTCCAGAATTAATTTTGTCGGAGTCACCTAGTGCAG,9090 fluorescence intensity (a.u.)
17,CACGCGCCGCCGCCGCCGCCGCCGGACCTCCTCCCCACCCCGGAGTCACCTAGTGCAG,8760 fluorescence intensity (a.u.)
18,CCGACACCCTCGCCAATCCCGTCGTGCTCACCGCCGGCCACGGAGTCACCTAGTGCAG,8900 fluorescence intensity (a.u.)
19,ACTTAGCTGCTCATTGAGCATACCTGATTTTGGTATTTTTCGGAGTCACCTAGTGCAG,8360 fluorescence intensity (a.u.)
20,TTGACACTGAACGATACTCCAGGTTTGATGATCCACTTGACGGAGTCACCTAGTGCAG,9060 fluorescence intensity (a.u.)
21,GAAATTAATTTAGCTCTACATCCGTTCTGTTTATGAATAACGGAGTCACCTAGTGCAG,8380 fluorescence intensity (a.u.)

row,Sequence,binding signal
1,CTGATATCTTGAGCCACTTGTTGCTGCCACTCTGCCATAACGGAGTCACCTAGTGCAG,10000 fluorescence intensity (a.u.)
2,GTCCCCACCACCACCACCTCCTCCCCGGCGCCGTCCTACACGGAGTCACCTAGTGCAG,10200 fluorescence intensity (a.u.)
3,ATGCCTAATTAATAGATAACTGTCATGTCGCATCCTTCTTCGGAGTCACCTAGTGCAG,8280 fluorescence intensity (a.u.)
4,GCTTAATAAATTCGTCTCGCGGTTTAATGTTGGATTCTGTCGGAGTCACCTAGTGCAG,9350 fluorescence intensity (a.u.)
5,ATAGAAGTTCGGATTGGGTTTCGTTCTTTTCTTCTTCTTTCGGAGTCACCTAGTGCAG,10400 fluorescence intensity (a.u.)
6,ATACTGTTTTTTTTGTTATTTATAAATTTTGTTTTTTTTCCGGAGTCACCTAGTGCAG,12300 fluorescence intensity (a.u.)
7,TTTTTCCAAACACCTTGCATGCAACACGATCTCGTCGATCCGGAGTCACCTAGTGCAG,8290 fluorescence intensity (a.u.)
8,GGACATGTTATGTGGTGGGTCCTGCCGAGATTTAGTCAACCGGAGTCACCTAGTGCAG,8330 fluorescence intensity (a.u.)
9,CCTACTTAATCCTTCATTAGCAAATATTTACTGTAGCAACCGGAGTCACCTAGTGCAG,8510 fluorescence intensity (a.u.)
10,AGGCACGACGGCCCATTGTGTTTCTCCATGGAAAAAGTATCGGAGTCACCTAGTGCAG,8870 fluorescence intensity (a.u.)
11,GCTTGTTTTTTCGATTACTTATAATTCACTAATTGAATTTCGGAGTCACCTAGTGCAG,8080 fluorescence intensity (a.u.)
12,GCTAGTTCATGGACGGTAAAAACCTACTCTTATTTACCTTCGGAGTCACCTAGTGCAG,8210 fluorescence intensity (a.u.)
13,AGTTGAGGGACCTTGCGTGTACTTTTCCCTTTATTTTCTCCGGAGTCACCTAGTGCAG,8580 fluorescence intensity (a.u.)
14,CCACCTTTGCCTCGTCGTCTCAATCGCCTTCGTCGGCCGTCGGAGTCACCTAGTGCAG,8370 fluorescence intensity (a.u.)
15,ACTCACTTTTCCCCAGCTTTTCCGCGCTTAATTTCTCGACCGGAGTCACCTAGTGCAG,12200 fluorescence intensity (a.u.)
16,GATGGTTCTATCGATATTTTGCAATGAGACTGTCATAAAACGGAGTCACCTAGTGCAG,12100 fluorescence intensity (a.u.)
17,ATTTCCTTCGCCGCCGCCGCCGGCTTCGTCTTCTTCCCCGCGGAGTCACCTAGTGCAG,9250 fluorescence intensity (a.u.)
18,TTTATATCTCTGTAATTATGTGTTTCTTCTGATCTGGAATCGGAGTCACCTAGTGCAG,9240 fluorescence intensity (a.u.)
19,CCTACTGACTACGCTCTACTTTTCTTTGTCCTTGGAGAATCGGAGTCACCTAGTGCAG,8900 fluorescence intensity (a.u.)
20,GGGCAGTGTTATTTACAATACTCCAGGTCAACGCTCACAGCGGAGTCACCTAGTGCAG,8170 fluorescence intensity (a.u.)
21,TTCTTTATTGAGGGTACTTGATTTGTCGATATATATTTATCGGAGTCACCTAGTGCAG,9020 fluorescence intensity (a.u.)

# Reprinted from the results shown (8 entries):
row,Sequence,binding signal
7,TTTTTCCAAACACCTTGCATGCAACACGATCTCGTCGATCCGGAGTCACCTAGTGCAG,8290 fluorescence intensity (a.u.)
8,GGACATGTTATGTGGTGGGTCCTGCCGAGATTTAGTCAACCGGAGTCACCTAGTGCAG,8330 fluorescence intensity (a.u.)
9,CCTACTTAATCCTTCATTAGCAAATATTTACTGTAGCAACCGGAGTCACCTAGTGCAG,8510 fluorescence intensity (a.u.)
10,AGGCACGACGGCCCATTGTGTTTCTCCATGGAAAAAGTATCGGAGTCACCTAGTGCAG,8870 fluorescence intensity (a.u.)
11,GCTTGTTTTTTCGATTACTTATAATTCACTAATTGAATTTCGGAGTCACCTAGTGCAG,8080 fluorescence intensity (a.u.)
12,GCTAGTTCATGGACGGTAAAAACCTACTCTTATTTACCTTCGGAGTCACCTAGTGCAG,8210 fluorescence intensity (a.u.)
13,AGTTGAGGGACCTTGCGTGTACTTTTCCCTTTATTTTCTCCGGAGTCACCTAGTGCAG,8580 fluorescence intensity (a.u.)
14,CCACCTTTGCCTCGTCGTCTCAATCGCCTTCGTCGGCCGTCGGAGTCACCTAGTGCAG,8370 fluorescence intensity (a.u.)
